{
  "source": "PubChem BioAssay AID720565",
  "about": "(National Center for Advancing Translational Sciences (NCATS), 2013)",
  "experiment": "qHTS for small molecules that induce genotoxicity in ELG1 expressing cells: Confirmatory Assay for Cherry-picked Compounds; further: nearly all actives have a fitted effect of over 35% in size",
  "conditions": "ELG1-luciferase reporter cells, luminescence, 16 h",
  "source_text": "Cancer cells divide rapidly compared to normal cells in the body. During cell division, cancer cells need to duplicate their genome by DNA replication. The failure of genome duplication leads to cancer cells' death. Therefore, inhibitors of DNA replication could specifically kill cancer cells. Based on this concept, many chemotherapeutic agents were developed and have been used to treat cancer patients. However, there are a limited number of agents available in the clinical setting, and some of those that do exist have low efficacy and severe side effects. Therefore, if we can find the compounds that effectively block DNA replication either by directly damaging DNA or by inhibiting other cellular mechanisms, the options for cancer treatment will be broadened. We developed a quantitative high-throughput ELG1-luciferase reporter gene assay. Since the level of human ELG1 protein is enhanced in response to genetic stresses, increases in luciferase activity can be used to identify compounds that cause genetic stress. […]\nFor genotoxicity screening, 2,000 cells/ well (5 uL volume) were dispensed into white, solid-bottom 1536-well plates using a solenoid-based dispenser. […] The assay plates were incubated for 30 min at room temperature followed by quantification of the luciferase activity using the PerkinElmer ViewLux CCD-based plate reader.",
  "note": "The shares of active, inactive and inconclusive entries below differ from those in the screen. The call rests on the fitted dose curve; in most records, active means well fitted activation curve with a large enough effect; inconclusive means small, poorly fitted or top-dose-only effect; inactive means no such curve, though single readings can be large or run the other way. Where the call is inconclusive, the potency comes from a doubtful curve fit. Potency means the concentration at half of the fitted maximal effect.",
  "data": [
    {"smiles": "COc1cc2c(c(OC)c1OC)-c1ccc(O)c(=O)cc1C(NC(C)=O)CC2", "note": "(stereo unspecified)", "values": [
      {"measurement": "Potency", "value": "inconclusive: 889 nM [activator, full curve]"}
    ]}
  ]
}
